Results are given in words; binding and its absence hold for the method and conditions named. Binding seen in cells or lysates may run through a third protein. A yes stands for co-enrichment or nearness to the bait. Other partners may have been found. Sequences can lack the tags named with a protein.
T1: mouse LASS2-GFP (from the recombinant mouse adenovirus-expressing LASS2 vector Adv-mLASS2-GFP) (mouse) (UniProt Q924Z4)
T1 sequence: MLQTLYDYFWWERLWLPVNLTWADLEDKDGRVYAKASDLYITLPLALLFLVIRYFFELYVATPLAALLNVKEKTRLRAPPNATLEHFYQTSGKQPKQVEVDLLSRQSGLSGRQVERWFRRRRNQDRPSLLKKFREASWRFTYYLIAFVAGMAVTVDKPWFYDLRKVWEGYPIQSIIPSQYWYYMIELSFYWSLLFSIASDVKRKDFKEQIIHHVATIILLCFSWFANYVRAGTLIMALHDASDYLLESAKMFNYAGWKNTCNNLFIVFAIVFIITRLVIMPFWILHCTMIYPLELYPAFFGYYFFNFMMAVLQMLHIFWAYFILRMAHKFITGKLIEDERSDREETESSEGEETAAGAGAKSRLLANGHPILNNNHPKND

Protein sequences, listed by entry. Tags and fused reporters are not part of them. Lines headed by an entry give the natural chain unless they say otherwise; changes in a name come on top.
UniProt P23804: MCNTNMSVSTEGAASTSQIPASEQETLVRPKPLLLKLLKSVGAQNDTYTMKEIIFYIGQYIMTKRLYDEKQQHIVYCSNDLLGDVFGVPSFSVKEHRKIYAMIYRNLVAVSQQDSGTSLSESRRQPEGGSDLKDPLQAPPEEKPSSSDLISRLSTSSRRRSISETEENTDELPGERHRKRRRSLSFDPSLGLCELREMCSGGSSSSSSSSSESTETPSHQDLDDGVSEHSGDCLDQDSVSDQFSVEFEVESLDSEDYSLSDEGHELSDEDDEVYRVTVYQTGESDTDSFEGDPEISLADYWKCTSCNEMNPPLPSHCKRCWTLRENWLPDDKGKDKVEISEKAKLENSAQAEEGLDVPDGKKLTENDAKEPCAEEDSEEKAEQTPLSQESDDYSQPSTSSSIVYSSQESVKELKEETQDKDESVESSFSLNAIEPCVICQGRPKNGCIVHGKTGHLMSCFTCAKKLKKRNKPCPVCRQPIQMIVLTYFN
UniProt P11440: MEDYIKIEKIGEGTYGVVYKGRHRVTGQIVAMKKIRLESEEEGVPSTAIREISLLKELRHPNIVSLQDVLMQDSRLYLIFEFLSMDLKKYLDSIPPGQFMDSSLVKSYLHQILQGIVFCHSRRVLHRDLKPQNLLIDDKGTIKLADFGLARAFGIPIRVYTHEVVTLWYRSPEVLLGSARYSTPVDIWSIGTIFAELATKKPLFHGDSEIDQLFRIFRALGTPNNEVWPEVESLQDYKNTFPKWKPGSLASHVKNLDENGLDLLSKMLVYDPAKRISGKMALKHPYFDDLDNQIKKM
UniProt P17918: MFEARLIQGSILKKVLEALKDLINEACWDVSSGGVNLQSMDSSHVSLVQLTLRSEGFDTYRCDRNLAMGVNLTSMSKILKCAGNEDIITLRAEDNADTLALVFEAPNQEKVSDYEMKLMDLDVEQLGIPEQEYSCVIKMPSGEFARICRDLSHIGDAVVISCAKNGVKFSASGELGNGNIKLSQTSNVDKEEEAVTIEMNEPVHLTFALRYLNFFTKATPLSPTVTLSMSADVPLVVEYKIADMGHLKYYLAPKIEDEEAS
UniProt O88879: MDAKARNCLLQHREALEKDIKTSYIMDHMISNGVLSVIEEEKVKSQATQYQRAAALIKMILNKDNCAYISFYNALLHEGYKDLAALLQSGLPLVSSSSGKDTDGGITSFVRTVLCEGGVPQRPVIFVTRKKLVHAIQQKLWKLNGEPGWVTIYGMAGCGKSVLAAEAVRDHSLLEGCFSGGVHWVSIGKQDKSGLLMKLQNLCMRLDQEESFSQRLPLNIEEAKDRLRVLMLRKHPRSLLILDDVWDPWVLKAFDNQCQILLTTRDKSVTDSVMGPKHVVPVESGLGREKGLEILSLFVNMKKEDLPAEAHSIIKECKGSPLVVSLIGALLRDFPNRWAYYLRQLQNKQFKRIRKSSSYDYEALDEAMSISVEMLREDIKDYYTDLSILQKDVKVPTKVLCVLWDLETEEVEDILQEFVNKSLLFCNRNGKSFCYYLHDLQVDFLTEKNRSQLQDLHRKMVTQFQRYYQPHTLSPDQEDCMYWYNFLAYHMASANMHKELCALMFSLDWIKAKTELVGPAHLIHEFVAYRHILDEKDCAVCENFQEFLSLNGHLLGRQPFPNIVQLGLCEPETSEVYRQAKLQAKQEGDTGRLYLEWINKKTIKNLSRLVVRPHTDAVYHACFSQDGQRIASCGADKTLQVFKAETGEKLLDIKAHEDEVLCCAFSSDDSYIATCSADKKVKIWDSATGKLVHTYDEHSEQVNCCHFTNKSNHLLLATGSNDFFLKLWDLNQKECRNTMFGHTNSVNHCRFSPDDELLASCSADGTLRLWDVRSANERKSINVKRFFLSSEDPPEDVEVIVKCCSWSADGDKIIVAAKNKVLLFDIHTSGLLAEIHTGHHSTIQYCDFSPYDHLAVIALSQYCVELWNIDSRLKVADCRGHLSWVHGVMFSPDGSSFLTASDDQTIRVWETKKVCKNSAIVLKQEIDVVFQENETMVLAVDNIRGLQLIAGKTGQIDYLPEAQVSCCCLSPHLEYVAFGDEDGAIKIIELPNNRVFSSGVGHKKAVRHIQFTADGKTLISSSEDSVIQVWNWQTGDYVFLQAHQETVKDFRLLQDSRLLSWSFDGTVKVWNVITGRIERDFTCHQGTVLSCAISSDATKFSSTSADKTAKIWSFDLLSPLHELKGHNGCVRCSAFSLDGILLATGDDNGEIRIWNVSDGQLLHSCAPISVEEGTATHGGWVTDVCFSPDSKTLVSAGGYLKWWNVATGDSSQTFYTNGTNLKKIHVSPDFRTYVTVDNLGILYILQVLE
UniProt Q9Z0X1: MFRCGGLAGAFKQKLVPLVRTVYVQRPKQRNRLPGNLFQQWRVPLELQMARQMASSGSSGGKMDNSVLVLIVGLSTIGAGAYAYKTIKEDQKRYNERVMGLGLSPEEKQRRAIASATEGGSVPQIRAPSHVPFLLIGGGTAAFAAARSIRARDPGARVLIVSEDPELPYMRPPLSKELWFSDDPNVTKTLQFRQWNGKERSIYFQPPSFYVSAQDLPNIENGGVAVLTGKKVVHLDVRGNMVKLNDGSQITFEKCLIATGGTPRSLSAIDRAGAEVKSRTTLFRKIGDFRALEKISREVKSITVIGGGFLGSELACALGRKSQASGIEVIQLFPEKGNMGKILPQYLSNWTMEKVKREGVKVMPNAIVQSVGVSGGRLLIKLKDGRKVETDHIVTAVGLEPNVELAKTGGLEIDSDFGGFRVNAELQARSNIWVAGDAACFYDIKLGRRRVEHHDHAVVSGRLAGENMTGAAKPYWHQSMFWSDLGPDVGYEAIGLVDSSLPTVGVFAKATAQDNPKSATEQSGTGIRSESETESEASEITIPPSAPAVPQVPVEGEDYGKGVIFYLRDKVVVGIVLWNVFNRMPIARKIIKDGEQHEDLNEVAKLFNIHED

B1: MDMX (endogenous, Hepa1-6 cells) (protein, UniProt O35618 1-489)
chain: MTSHSTSAQCSASDSACRISSEQISQVRPKLQLLKILHAAGAQGEVFTMKEVMHYLGQYIMVKQLYDQQEQHMVYCGGDLLGDLLGCQSFSVKDPSPLYDMLRKNLVTSASINTDAAQTLALAQDHTMDFPSQDRLKHGATEYSNPRKRTEEEDTHTLPTSRHKCRDSRADEDLIEHLSQDETSRLDLDFEEWDVAGLPWWFLGNLRNNCIPKSNGSTDLQTNQDIGTAIVSDTTDDLWFLNETVSEQLGVGIKVEAANSEQTSEVGKTSNKKTVEVGKDDDLEDSRSLSDDTDVELTSEDEWQCTECKKFNSPSKRYCFRCWALRKDWYSDCSKLTHSLSTSNITAIPEKKDNEGIDVPDCRRTISAPVVRPKDGYLKEEKPRFDPCNSVGFLDLAHSSESQEIISSAREQTDIFSEQKAETESMEDFQNVLKPCSLCEKRPRDGNIIHGKTSHLTTCFHCARRLKKSGASCPACKKEIQLVIKVFIA

What follows are molecules tested against T1, mouse LASS2-GFP (from the recombinant mouse adenovirus-expressing LASS2 vector Adv-mLASS2-GFP) (mouse) (assay: affinity purification with mass spectrometry; Hepa1-6 cells transfected with Adv-GFP or Adv-mLASS2-GFP for 48 h; lysates (IP lysis/wash buffer) incubated 1 h at 4 °C with GFP Nanoselector beads; SDS-PAGE, Coomassie Blue, gel portions digested with trypsin, LC-MS).

Molecule	binding
MDM2 (endogenous, Hepa1-6 cells) (from UniProt P23804 1-489)	binds
CDK1 (endogenous, Hepa1-6 cells) (from UniProt P11440 1-297)	binds
HNRNPK (endogenous, Hepa1-6 cells) (from UniProt P61979 1-463)	binds
PCNA (endogenous, Hepa1-6 cells) (from UniProt P17918 1-261)	binds
APAF1 (endogenous, Hepa1-6 cells) (from UniProt O88879 1-1249)	binds
AIFM1 (endogenous, Hepa1-6 cells) (from UniProt Q9Z0X1)	binds
B1	binds

From publication PMC10646090
